Values from PubChem BioAssay AID1671195 (Yale University, 2021).
The whole screen tested about 22,000 reagents; this is a random part of them. About 1,510 of them (6.9%) count as active. 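Active includes knockdowns raising or lowering LDL uptake; positive z-scores mean more uptake, negative mean less.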

Aim: 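Regulators of LDL receptor activity judged by labelled LDL uptake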 (primary screen)
System: human Huh7 hepatoma cells
Reagents: siRNA pool against human genes, 18 nM
Duration: about 2 to 2.5 days of knockdown, then 8 h LDL uptake
Conditions: DiI-labelled LDL at 30 µg/ml for 8 h, in lipoprotein-deficient serum medium
Read-out: 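Per-cell DiI-LDL intensity by automated imaging; well means scaled to the plate median and given as a robust z-score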
Scale: robust z-score: higher = more LDL uptake after knockdown
Active means: 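a gene counts as active if at least two replicate z-scores exceed ±2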

| Target gene | robust z-score, replicate 1 | robust z-score, replicate 2 | robust z-score, replicate 3 | outcome |
| --- | --- | --- | --- | --- |
| KIF20A (kinesin family member 20A) | -0.235 | -0.343 | -0.89 | inactive |
| NDRG2 (NDRG family member 2) | -0.71 | -1.11 | -1 | inactive |
| NAA11 (N-alpha-acetyltransferase 11, NatA catalytic subunit) | 0.639 | 1.08 | 0.313 | inactive |
| NSMCE1 (NSE1 component of SMC5/6 complex) | 2.37 | 0.642 | 0.533 | inactive |
| PRDM11 (PR/SET domain 11) | 5.43 | 0.924 | -0.132 | inactive |
| SERPINF2 (serpin family F member 2) | 0.0734 | -0.0508 | 0.567 | inactive |
| LOC441230 (retired record) | 0.269 | -0.358 | -0.016 | inactive |
| EXOC7 (exocyst complex component 7) | -0.278 | -0.459 | -0.705 | inactive |
| MIF (macrophage migration inhibitory factor) | 0.128 | 0.0589 | 0.42 | inactive |
| ITIH4 (inter-alpha-trypsin inhibitor heavy chain 4) | -0.447 | -1.97 | -1.56 | inactive |
| CRISP1 (cysteine rich secretory protein 1) | 0.771 | 1.31 | 0.147 | inactive |
| VAMP5 (vesicle associated membrane protein 5) | 1.17 | 0.403 | -0.92 | inactive |
| ELOVL7 (ELOVL fatty acid elongase 7) | -2.09 | -1.74 | -1.75 | inactive |
| CCDC34 (coiled-coil domain containing 34) | -0.0654 | -0.122 | 0.0648 | inactive |
| KBTBD4 (kelch repeat and BTB domain containing 4) | -1.7 | -0.167 | -0.845 | inactive |
| RIMKLA (ribosomal modification protein rimK like family member A) | 2 | 2.31 | 1.34 | active |
| PTX3 (pentraxin 3) | 2.19 | 1.31 | 1.95 | active |
| FAM90A10 (family with sequence similarity 90 member A10) | 0.317 | -0.474 | -0.37 | inactive |
| DUSP7 (dual specificity phosphatase 7) | 0.949 | 1.35 | 1.05 | inactive |
| PCDHB12 (protocadherin beta 12) | 1.51 | 1.31 | 1.48 | inactive |
| NFATC2IP (nuclear factor of activated T cells 2 interacting protein) | 0.839 | 1.01 | 1.13 | inactive |
| COX7A2 (cytochrome c oxidase subunit 7A2) | -0.601 | -0.387 | -0.842 | inactive |
| DDX42 (DEAD-box helicase 42) | -1.12 | -2.13 | -1.32 | inactive |
| ADIPOR2 (adiponectin receptor 2) | -0.823 | -0.892 | -0.732 | inactive |
| METTL16 (methyltransferase 16, RNA N6-adenosine) | 0.0823 | -0.274 | -0.016 | inactive |
| FGF1 (fibroblast growth factor 1) | 0.346 | 0.136 | 0.0197 | inactive |
| LOC440867 (retired record) | 1.39 | 1.84 | 1.91 | inactive |
| MRFAP1 (Morf4 family associated protein 1) | 0.1 | -0.139 | -0.0461 | inactive |

Hits, among the entries above:
| Target gene | robust z-score, replicate 1 | robust z-score, replicate 2 | robust z-score, replicate 3 | outcome |
| --- | --- | --- | --- | --- |
| RIMKLA (ribosomal modification protein rimK like family member A) | 2 | 2.31 | 1.34 | active |
| PTX3 (pentraxin 3) | 2.19 | 1.31 | 1.95 | active |
